Results taken from patent publication US20170305981A1, “SYNTHETIC PEPTIDES” (The University of Chicago, priority 2014, published 2017).

Assay: Circular dichroism spectroscopy of peptide folding
Format: physicochemical
Method: FIG. 10. AV199-232 is an a-helical peptide that binds heparin. Peptide folding and conformation was analyzed experimentally by circular dichroism spectroscopy (A) and calculated to be ˜42% α-helical which increased to ˜76% on binding heparin.
Given that there appeared to be a periodicity in the sequence of AV199-232 consisting of alternating polar and non-polar residues, the possibility that the peptide was folded into a amphipathic α-helix was investigated (FIG. 10). […] In silico analysis also predicted a high α-helical content. […] The amphipathic nature of the peptide was evident with polar residues and nonpolar residues (domain-L) organized to opposite sides of the helix. Domain-L is responsible for binding to VLDL. Domain-1, domain-2 and domain-H were also identified on the polar side.

With “AV199-232: 34-residue peptide, residues 199-232 of apoA-V; AV199-237 shortened by 5 residues (ARLSRCVQVLSRKLTLKAKALHARIQQNLDQLRE; listed as Homo sapiens)” the α-helical content (peptide alone) was ~42% and the “α-helical content on binding heparin” value (with heparin) was ~76%.
